Reference: article doi:10.1101/2020.08.16.252973
Results are given in words; binding and its absence hold for the method and conditions named. Binding seen in cells or lysates may run through a third protein. Some entries that bind do so weakly or less than the wild type.

By UniProt entry, the sequences of proteins in these tests, tags left out.
UniProt Q86WV6: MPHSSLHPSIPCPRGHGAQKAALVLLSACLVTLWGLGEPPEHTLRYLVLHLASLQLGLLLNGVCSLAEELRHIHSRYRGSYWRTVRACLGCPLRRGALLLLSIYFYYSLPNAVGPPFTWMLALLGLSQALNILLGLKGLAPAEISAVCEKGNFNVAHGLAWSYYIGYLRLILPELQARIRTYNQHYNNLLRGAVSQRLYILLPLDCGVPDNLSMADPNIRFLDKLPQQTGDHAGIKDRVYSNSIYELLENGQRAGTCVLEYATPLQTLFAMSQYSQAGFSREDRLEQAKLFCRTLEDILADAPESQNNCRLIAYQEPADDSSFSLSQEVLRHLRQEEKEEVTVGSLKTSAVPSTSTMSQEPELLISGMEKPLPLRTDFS
UniProt Q8IUC6: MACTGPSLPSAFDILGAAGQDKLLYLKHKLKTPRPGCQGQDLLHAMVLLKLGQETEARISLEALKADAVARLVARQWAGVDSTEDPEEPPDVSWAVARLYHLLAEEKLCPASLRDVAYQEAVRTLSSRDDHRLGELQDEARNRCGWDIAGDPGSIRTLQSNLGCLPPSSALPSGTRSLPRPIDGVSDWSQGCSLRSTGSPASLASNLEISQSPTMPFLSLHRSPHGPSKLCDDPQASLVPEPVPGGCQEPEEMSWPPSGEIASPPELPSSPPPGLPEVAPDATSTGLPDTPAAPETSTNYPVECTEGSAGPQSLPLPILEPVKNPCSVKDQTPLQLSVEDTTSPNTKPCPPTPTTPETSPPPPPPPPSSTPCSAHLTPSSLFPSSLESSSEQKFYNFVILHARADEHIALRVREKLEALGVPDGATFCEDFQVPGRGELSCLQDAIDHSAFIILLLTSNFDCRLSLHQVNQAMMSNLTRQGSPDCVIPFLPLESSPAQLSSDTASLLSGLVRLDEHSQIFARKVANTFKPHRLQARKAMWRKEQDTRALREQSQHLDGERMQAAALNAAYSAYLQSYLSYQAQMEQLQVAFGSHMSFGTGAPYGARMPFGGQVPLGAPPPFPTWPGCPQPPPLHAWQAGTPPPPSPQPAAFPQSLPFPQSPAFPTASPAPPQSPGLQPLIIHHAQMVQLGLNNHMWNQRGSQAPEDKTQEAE
UniProt P0DTD2: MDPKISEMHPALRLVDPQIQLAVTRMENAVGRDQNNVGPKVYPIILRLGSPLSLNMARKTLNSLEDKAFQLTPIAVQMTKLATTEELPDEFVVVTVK

Columns and labels:
stimulator of IFN genes = stimulator of IFN genes (UniProt Q86WV6); experiment: co-IP
[1] = molecular target: TIR-domain-containing adapter-inducing interferon-β (UniProt Q8IUC6); experiment: co-IP

Substance: SARS-CoV-2 ORF9b (from UniProt P0DTD2 1-97)
- binding (stimulator of IFN genes): binds
- binding [1]: binds
